Test results from patent US8637485B2, “5′,-substituted adenosynes preparation thereof and use as inhibitors of S-adenosylmethionine decarboxylase” (Southern Research Institute, priority 2007, dated 2014).
Structures can show the parent of a compound that is named as a salt. Some entries share one result that the patent states for a list of compounds.

Target: T1, hAdoMetDC (Homo sapiens, UniProt P17707)
T1 construct: the enzyme undergoes autoprocessing to give the α and the β subunits; made in house; host or cells: E. coli JM109 (pQE30-based plasmid)
T1 sequence (P17707 1-67 limits assumed): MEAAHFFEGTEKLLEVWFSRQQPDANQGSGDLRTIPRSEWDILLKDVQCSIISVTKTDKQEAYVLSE
T1 sequence (P17707 68-328 limits assumed): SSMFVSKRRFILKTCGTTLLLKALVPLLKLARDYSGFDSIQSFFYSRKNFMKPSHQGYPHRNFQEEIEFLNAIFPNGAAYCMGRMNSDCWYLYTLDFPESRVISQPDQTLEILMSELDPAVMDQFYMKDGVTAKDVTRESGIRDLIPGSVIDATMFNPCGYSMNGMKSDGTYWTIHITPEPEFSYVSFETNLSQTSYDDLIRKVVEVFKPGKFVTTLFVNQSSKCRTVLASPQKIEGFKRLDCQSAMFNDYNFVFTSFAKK
Test: Assay of AdoMetDC activity (release of 14CO2 from S-adenosyl-L-[carboxy-14C]methionine) and determination of inhibitor IC50 values
Assay type: biochemical
Conditions: versus 8-unsubstituted parent compound
Experimental: Assay of AdoMetDC Activity and Determination of Inhibitor IC50 Values
(§1) AdoMetDC was assayed by measuring the release of ^14CO2 from S-adenosyl-L-[carboxy-^14C]methionine (Amersham Pharmacia Biotech, ˜60 mCi/mmol) (36). […] For determination of the abilities of compounds to inhibit AdoMetDC, the enzyme activity was determined in the presence of no inhibitor and at least 5 concentrations of each potential inhibitor. The IC50 values were determined from curve fitting to plots of the inhibitor concentration versus the % inhibition of AdoMetDC.
as §1

| SMILES | reduction in the IC50 value when an 8-methyl substituent was added to the adenine ring |
| --- | --- |
| Cc1nc2c(N)ncnc2n1[C@@H]1O[C@H](CN(C)CCC(N)=O)[C@@H](O)[C@H]1O [Compound 13d, 5′-[(2-Carboxamidoethyl)methylamino]-5′-deoxy-8-methyladenosine sulfate (1.5:1 salt)] | 15-17 fold |
| Cc1nc2c(N)ncnc2n1[C@@H]1O[C@H](CN(C)C)[C@@H](O)[C@H]1O [Compound 19a, 5′-Deoxy-5′-(N,N-dimethylamino)-8-methyladenosine] | 15-17 fold |
